Results are given in words; binding and its absence hold for the method and conditions named. In cells and extracts the contact can be indirect. A yes stands for co-enrichment or nearness to the bait. Other partners may have been found. For some assays here: Sequences can lack the tags named with a protein.

Protein sequences, listed by entry. Tags and fused reporters are not part of them. Lines headed by an entry give the natural chain unless they say otherwise; changes in a name come on top.
UniProt Q07540: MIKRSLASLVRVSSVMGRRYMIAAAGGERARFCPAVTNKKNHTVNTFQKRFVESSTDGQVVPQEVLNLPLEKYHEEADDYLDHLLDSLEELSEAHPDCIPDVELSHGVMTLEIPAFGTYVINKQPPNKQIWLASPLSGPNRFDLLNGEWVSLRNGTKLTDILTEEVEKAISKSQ

Assay [1] has as its target T1, Nfs1-His6 (S. cerevisiae) (UniProt P25374).
T1 sequence: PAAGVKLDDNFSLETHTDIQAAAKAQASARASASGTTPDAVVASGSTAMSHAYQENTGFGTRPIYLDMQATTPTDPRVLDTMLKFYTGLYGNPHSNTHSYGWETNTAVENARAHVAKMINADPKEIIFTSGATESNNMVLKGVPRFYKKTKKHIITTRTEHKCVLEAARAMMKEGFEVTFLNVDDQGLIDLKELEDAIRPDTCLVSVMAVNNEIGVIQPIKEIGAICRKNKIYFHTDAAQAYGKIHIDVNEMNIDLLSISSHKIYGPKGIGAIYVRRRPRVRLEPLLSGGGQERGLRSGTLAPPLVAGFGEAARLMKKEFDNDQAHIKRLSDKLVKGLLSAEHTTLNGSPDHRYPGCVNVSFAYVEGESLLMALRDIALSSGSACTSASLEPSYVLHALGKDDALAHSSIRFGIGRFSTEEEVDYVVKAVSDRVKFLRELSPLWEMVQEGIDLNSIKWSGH
As to the kind of experiment: affinity purification with mass spectrometry; Nfs1-His6 held on Ni-NTA superflow agarose from sonicated, cleared lysate of isolated mitochondria of the Gal-Nfs1-His6 yeast strain; 50 mM TrisCl pH 7.5, 80 mM KCl, 10% glycerol, wash 40 mM imidazole, elution 400 mM imidazole; eluate analysed by LC-MS/MS.

For assay [2], the target named is Yfh1-His6 (S. cerevisiae) (UniProt Q07540). As to the kind of experiment: affinity purification with mass spectrometry; Yfh1-His6 held on Ni-NTA superflow agarose from French-press lysate (108,000xg supernatant) of isolated mitochondria of the Yfh1-His6 yeast strain; 50 mM TrisCl pH 7.5, 80 mM KCl, 10% glycerol, wash 40 mM imidazole with 0.1% Triton X-100, elution 400 mM imidazole; eluate analysed by LC-MS/MS.

B1: Isocitrate dehydrogenase [NADP], mitochondrial (protein, UniProt P21954 17-428)
chain: FSKIKVKQPVVELDGDEMTRIIWDKIKKKLILPYLDVDLKYYDLSVESRDATSDKITQDAAEAIKKYGVGIKCATITPDEARVKEFNLHKMWKSPNGTIRNILGGTVFREPIVIPRIPRLVPRWEKPIIIGRHAHGDQYKATDTLIPGPGSLELVYKPSDPTTAQPQTLKVYDYKGSGVAMAMYNTDESIEGFAHSSFKLAIDKKLNLFLSTKNTILKKYDGRFKDIFQEVYEAQYKSKFEQLGIHYEHRLIDDMVAQMIKSKGGFIMALKNYDGDVQSDIVAQGFGSLGLMTSILVTPDGKTFESEAAHGTVTRHYRKYQKGEETSTNSIASIFAWSRGLLKRGELDNTPALCKFANILESATLNTVQQDGIMTKDLALACGNNERSAYVTTEEFLDAVEKRLQKEIKSIE
As to B1, in assay [1], the binding entry is “binds”.

B2: Lon protease homolog, mitochondrial (protein, UniProt P36775 99-1133)
chain: KDDSTSQKKDEDVKIVPDEKDTDNDVEPTRDDEIVNKDQEGEASKNSRSSASGGGQSSSSRSDSGDGSSKQKPPKDVPEVYPQMLALPIARRPLFPGFYKAVVISDERVMKAIKEMLDRQQPYIGAFMLKNSEEDTDVITDKNDVYDVGVLAQITSAFPSKDEKTGTETMTALLYPHRRIKIDELFPPNEEKEKSKEQAKDTDTETTVVEDANNPEDQESTSPATPKLEDIVVERIPDSELQHHKRVEATEEESEELDDIQEGEDINPTEFLKNYNVSLVNVLNLEDEPFDRKSPVINALTSEILKVFKEISQLNTMFREQIATFSASIQSATTNIFEEPARLADFAAAVSAGEEDELQDILSSLNIEHRLEKSLLVLKKELMNAELQNKISKDVETKIQKRQREYYLMEQLKGIKRELGIDDGRDKLIDTYKERIKSLKLPDSVQKIFDDEITKLSTLETSMSEFGVIRNYLDWLTSIPWGKHSKEQYSIPRAKKILDEDHYGMVDVKDRILEFIAVGKLLGKVDGKIICFVGPPGVGKTSIGKSIARALNRKFFRFSVGGMTDVAEIKGHRRTYIGALPGRVVQALKKCQTQNPLILIDEIDKIGHGGIHGDPSAALLEVLDPEQNNSFLDNYLDIPIDLSKVLFVCTANSLETIPRPLLDRMEVIELTGYVAEDKVKIAEQYLVPSAKKSAGLENSHVDMTEDAITALMKYYCRESGVRNLKKHIEKIYRKAALQVVKKLSIEDSPTSSADSKPKESVSSEEKAENNAKSSSEKTKDNNSEKTSDDIEALKTSEKINVSISQKNLKDYVGPPVYTTDRLYETTPPGVVMGLAWTNMGGCSLYVESVLEQPLHNCKHPTFERTGQLGDVMKESSRLAYSFAKMYLAQKFPENRFFEKASIHLHCPEGATPKDGPSAGVTMATSFLSLALNKSIDPTVAMTGELTLTGKVLRIGGLREKAVAAKRSGAKTIIFPKDNLNDWEELPDNVKEGLEPLAADWYNDIFQKLFKDVNTKEGNSVWKAEFEILDAKKEKD
Consider B2, for which, in assay [1], the binding result is “binds”.

B3: Cysteine desulfurase, mitochondrial (enzyme, UniProt P25374 37-497)
chain: T1 sequence
With B3, the binding result in assay [2] is reported as “binds”.

B4: Chromatin structure-remodeling complex subunit RSC9 (protein, UniProt Q03124 1-581)
chain: MNSLASNTPLNGTPVSEAPATSSEPVNMFETMVANPIKVSRLQSNGVLTGPAANTKSIHYSLANFNVFQSLPKETARGVDDLTRMEMALLSGIPEEIKWSLKKYLTYSNKAPYMISLRTLPDLLPLFKTFILPLERIVEGLNKSSICDSKAMDSLQMGLNALLILRNLAQDTDSVQILVKDREIKSFILFILKKFQCVATGDNKWQLYEGNATFFNELTHYTLDLMEAISSYIAPAMKDDHYFQTLVSILNYTKDRYMVISILRSLSRLLVRSKANEESAADNLDHKTLSLIVSFLLLECDSELIIASLDFLYQYILPGSQRITELFKSKECSLILEATLPNLLSYNIATPDYHLLQKHKIRLIKRLKPPAPKEPPNLSEDLFQQLFKLNEPLRSTAWLRCCFEPVQEAEFTQISLWRSYESKFGQPVRESGRKLLPAVEFIKNVSNAFNNAAAIVITDPVTGKKRFVIKGIQPRFKALGIADGERESQVPISALKSKFLNDSKEITPARQNSIPEVKFPQELSDVSKVACTFLCLLSNDTDDGAGSAFCQRIRPLVLHKLADIPPLTLALSEYMENTSGL
For B4, the binding result in assay [1] was “binds”.

B5: Protein ZPS1 (protein, UniProt Q12512 21-249)
chain: APVTYDTNSTAELQSPSSQEILGWSHATFPTIYQTCNETNARMLNAAFKDTAEITAYGKDRLLNYGVDDVYYKRWFGNGSIFTVMGVFEQLMEASKGAMLMRCDDIDGLCAANPNYYAGHHRQSAPAETVICDYFYTSKKPLSTICFEGTIVDVGPKHYAGIDMLHRYLHVPTMSMDGYVGEYAETLEEVVDYTQNNATYAVRNTDNYLYYLADVYSASVIPGGCLGNL
Regarding B5, the binding entry in assay [2] is “binds”.

B6: AMP deaminase (protein, UniProt P15274 1-810)
chain: MDNQATQRLNDLSLEPAPSHDEQDGSGLVIDIDQRKIGDEQAGVVVDDETPPLEQQDSHESLAADSRNANFSYHENQQLLENGTKQLALDEHDSHSAILEQPSHSTNCSSSNIAAMNKGHDSADHASQNSGGKPRTLSASAQHILPETLKSFAGAPVVNKQVRTSASYKMGMLADDASQQFLDDPSSELIDLYSKVAECRNLRAKYQTISVQNDDQNPKNKPGWVVYPPPPKPSYNSDTKTVVPVTNKPDAEVFDFTKCEIPGEDPDWEFTLNDDDSYVVHRSGKTDELIAQIPTLRDYYLDLEKMISISSDGPAKSFAYRRLQYLEARWNLYYLLNEYQETSVSKRNPHRDFYNVRKVDTHVHHSACMNQKHLLRFIKHKLRHSKDEKVIFRDGKLLTLDEVFRSLHLTGYDLSIDTLDMHAHKDTFHRFDKFNLKYNPIGESRLREIFLKTNNYIKGTYLADITKQVIFDLENSKYQNCEYRISVYGRSLDEWDKLASWVIDNKVISHNVRWLVQIPRLYDIYKKTGIVQSFQDICKNLFQPLFEVTKNPQSHPKLHVFLQRVIGFDSVDDESKVDRRFHRKYPKPSLWEAPQNPPYSYYLYYLYSNVASLNQWRAKRGFNTLVLRPHCGEAGDPEHLVSAYLLAHGISHGILLRKVPFVQYLYYLDQVGIAMSPLSNNALFLTYDKNPFPRYFKRGLNVSLSTDDPLQFSYTREPLIEEYSVAAQIYKLSNVDMCELARNSVLQSGWEAQIKKHWIGKDFDKSGVEGNDVVRTNVPDIRINYRYDTLSTELELVNHFANFKRTIEEK
Take B6: the binding result in assay [1] is “binds”.

B7: Mitochondrial acidic protein MAM33 (protein, UniProt P40513 48-266)
chain: QETQRVGDILQSELKIEKETLPESTSLDSFNDFLNKYKFSLVETPGKNEAEIVRRTESGETVHVFFDVAQIANLPYNNAMDENTEQNEDGINEDDFDALSDNFANVNVVISKESASEPAVSFELLMNLQEGSFYVDSATPYPSVDAALNQSAEAEITRELVYHGPPFSNLDEELQESLEAYLESRGVNEELASFISAYSEFKENNEYISWLEKMKKFFH
Regarding B7, in assay [1], the binding result was “binds”.

B8: 5-AMP-activated protein kinase subunit gamma (protein, UniProt P12904 1-322)
chain: MKPTQDSQEKVSIEQQLAVESIRKFLNSKTSYDVLPVSYRLIVLDTSLLVKKSLNVLLQNSIVSAPLWDSKTSRFAGLLTTTDFINVIQYYFSNPDKFELVDKLQLDGLKDIERALGVDQLDTASIHPSRPLFEACLKMLESRSGRIPLIDQDEETHREIVVSVLTQYRILKFVALNCRETHFLKIPIGDLNIITQDNMKSCQMTTPVIDVIQMLTQGRVSSVPIIDENGYLINVYEAYDVLGLIKGGIYNDLSLSVGEALMRRSDDFEGVYTCTKNDKLSTIMDNIRKARVHRFFVVDDVGRLVGVLTLSDILKYILLGSN
Turning to B8, the binding result in assay [1] is on record as “binds”.
